From patent US7851505B2, “Thiotungstate analogues and uses thereof” (priority 2003, dated 2010)
At least one compound was matched to its structure with a doubt left.

Experiment: Moisture stability of tetrathiotungstate salts
Assay type: physicochemical
Details: room temperature, 95% relative humidity, two weeks; purity by absorbance; * = partially soluble; ‡ = average of 2 data points

## [NH4+].[NH4+].[SH-].[SH-].[S]=[Mo]=[S] [Tetrathiomolybdate, bis(ammonium), reference compound]
  % degradation: 56^‡ ± 5%
